The values below come from PubChem BioAssay AID1508600 (Functional Genomics Laboratory (NCATS/FGL), 2020).

Among all 53,000 sequences or so, about 3,700 (7%) were called active.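 The calls were made as follows: active = gene knockdowns whose robust z-score for IL-1 alpha signal is at least 2 or at most -2, so actives lie on both sides; inactive = the rest.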 The list shows a part of the results.

This experiment in a line: Components of the Cytosolic LPS Sensing Pathway: Gene Identification via Genome-wide siRNA Screen.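 Also: robust z of the log signal after scaling to non-targeting control siRNA wells of the plate.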 The following applies: RAW264.7 macrophages, IL-1a HTRF, actives lie on both sides, screened at 100 nM (by protocol), cells primed 5 h with Pam3CSK4 first. The method, boiled down:
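RAW264.7 mouse macrophages reverse-transfected with single siRNAs (100 nM final) for 48h, primed with Pam3CSK4 for 5 hours, then transfected with LipidA for 24 hour. Supernatant IL-1a read by HTRF; values normalized to negative-control median, log-transformed robust z-scores.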
On the technique in general: TR-FRET usually uses a lanthanide donor and a delayed reading to cut background.
In the case of GGGAUUUGAGUUCUGGAGCTT against Fbxo44, the z-score is inactive: -0.56.
As for GGAAUCAUAUAGACAGGUCTT against Smurf2, the z-score is inactive: -1.15.
Next, GCUGGGAGUAAAAUUGACUTT against Cenpj: inactive: -0.65.
With CCCAGGAGUUUAGAUGUAUTT against C1qtnf6, the z-score was inactive: -0.242.
GGAGAAAAUCACUUCUCCATT against Smarca1: the z-score is inactive: 0.041.
In the case of GGAUGACGGUAAAAUGUUUTT against Hnrnpdl, the z-score is inactive: 1.07.
For GGAAGUGUGUACCACAUCUTT against Atg13, the z-score is inactive: -0.211.
GGUUCUUCAAUGGCAUUGGTT against Neil1: the z-score is inactive: -1.91.
As for GGAACUGGAAGAGAAUGAGTT against Sdc4, the z-score is inactive: 0.862.
For the sequence GGAGGUGUGAUCCUAGGCUTT against Slc11a1, the z-score is inactive: -0.643.
Next, GGUUCACCUGACCUGUUAGTT against Itgad: inactive: -0.332; GGACCUAUGCGUUUCUGGUTT against Medag: inactive: -0.0354.
With GGAUGGUACUUUUUUGGUCTT against Clnk the figure was inactive: -0.233; with GGAAGUGAAGACCUUCUUCTT against St3gal4, inactive: -0.898.
As for GGACCUGAAGUGUUUAGUCTT against Magoh, the z-score was inactive: -1.92.
As to CCACACGUGUUUCAAAAUGTT against Parp8, the z-score was inactive: 0.297.
In the case of “GCACUGCCGGGAGUACUUATT against 5330438D12Rik”, the z-score is inactive: -0.287.
Next, GGAUCUUCUUUGUUGGUGCTT against Vmn1r6: inactive: -0.462; GGCCAGACCAAAAUCAAGCTT against Shox2: inactive: -1.79; GGUGAUGGAAAUAAACUACTT against Dhrs7b: inactive: 1.44.
For the sequence GGAAGGAGACACAGAAGAGTT against Marcksl1, the z-score is inactive: 0.491.
As for GGAAAGCUUUCUUCACCUGTT against Olfr206, the z-score was inactive: -1.73.
As to GGAAUAAUGAGGUUAUUGATT against Olfr695, the z-score was inactive: 0.459.
As for GAGAUAAGAUGGGAAAAAATT against Ssbp2, the z-score was inactive: -0.338.
Regarding GCCAUAACCGACUACGAGATT against Tsku, the z-score was inactive: 0.158.
With GCAGCUUGUAUGCAGCACUTT against Fam111a the figure was inactive: -0.208.
For the sequence GAAGCAGGCCUGGGAUCUUTT against Vmn1r41, the z-score was active: 2.01.
As for GGUAUAUGCGGAUCCUGAUTT against Limk2, the z-score was inactive: -0.251.
Next, GGAGAGACAGUUGUACACGTT against Sigmar1: inactive: -0.144; GGCACUAAUGGAGAGACUGTT against Nr6a1: active: 3.53.
For the sequence GGUGUCCAAGAUAAUUUGUTT against Gusb, the z-score is inactive: -0.547.
Next, GCCAUCAUACUGUCACCAGTT against Sys1: inactive: 0.758.
As to GGCAUUGGUGAAUCAUAUGTT against Olfr51, the z-score was inactive: 0.0319.
For the sequence GGGAAAGUGACUCCUGCUATT against Exo5, the z-score is inactive: 0.208.
In the case of GGGAAAAUAACGUGACUGATT against Olfr1270, the z-score is inactive: 0.167.
With GCUCAACUUACGUUCACUCTT against Vps72, the z-score was active: -2.53.
For GGUGUUCCUCAUGGUGACCTT against Tmem161a, the z-score was inactive: 0.238.
Regarding GGUAUUGAGUGAUAACUACTT against Klhdc7a, the z-score is inactive: 1.29.
Next, GGUUAGUAUGUAGCUCCCATT against Olfr982: inactive: -0.401; CCUGCUCUAUGGCAGAACGTT against Nkx2-4: inactive: 0.992.
GGCACACUUGUGUAAUAUUTT against Nop16: the z-score was inactive: -0.121.
As for GGAGUCUUUCAUUGAAGAATT against Snx12, the z-score is inactive: -0.0406.
Regarding GCAAUUGCGUAUCGUAAAUTT against Epha4, the z-score is inactive: -0.0039.
GCUGAAGCAUACAUUUGUGTT against Tas2r137: the z-score is inactive: -0.226.
Turning to GGAAUAGUGGCUUCUUUUATT against Rsph3a, the z-score was inactive: -0.00182.
As for GGACAAACUGGUCAUCGGGTT against Mrps28, the z-score was inactive: 1.28.
With GGUUAUUUGGAAGUGCUACTT against Esx1, the z-score was active: 2.81.
As to GGUAGACAAGAUCAUCGGATT against Dsc3, the z-score is inactive: 0.711.
Consider CCAUUUCUUUCAGUGGCUGTT against Olfr48, for which the z-score is inactive: -0.47.
Next, GCAAAUCGAUAUCAAACACTT against Slc30a1: inactive: -0.512.
With CGUCAAGAUCAAUAACUUGTT against Gm4788, the z-score was inactive: 0.508.
In the case of GGUGGUUGAGGAAUGUAAGTT against Kifap3, the z-score was inactive: -0.126.
Take GGCUCUAUGUCUUUGGAGGTT against Klhdc1: the z-score is inactive: -0.438.
Regarding GGAGAGUUCAGACAAGGCATT against Irx2, the z-score was inactive: -0.0732.
Regarding GGAGAUCGACGCGUGUAUCTT against Reep4, the z-score was inactive: 0.731.
As to GGACCUUCGUGAGAAUUUCTT against Mst1, the z-score is inactive: 0.521.
Take GCUACGUUCGAUAUGGGUGTT against H2-T3: the z-score was inactive: -0.17.
For GCUACCACAGGAUAUCCUUTT against Mcf2, the z-score was inactive: 0.6.
Regarding GCACGGUGUGUACAACCCUTT against Mdh2, the z-score is inactive: 0.784.
As to GGUCGAUCACGUCAUCGAATT against Unc5a, the z-score is inactive: -1.29.
Next, CCUACUUGAUAUUUUUGGUTT against Ccz1: inactive: 0.122; GGCUGAUUUAUACUGGAAATT against Tmem70: inactive: 1.67.
With GGUGCAUCACUUCAUGGAATT against Timm8b the figure was inactive: 0.17; with CCAGCAUUAUCCAUAUCAATT against Nat2, inactive: 0.786; with CCAGAUUGUUGUGGAAGUATT against Zfy1, inactive: -1.2.
For GGAGAAAAUGAGGUUAAUGTT against Tspan5, the z-score is inactive: 0.794.
For GGAGAUUUUCCAGUACACUTT against Slx4, the z-score is inactive: -0.416.
Next, CUUGGUGACAGACAAUGUCTT against H2-D1: inactive: 0.181; GGAGAAUGUGUUGGUCAUUTT against Pfkfb4: inactive: 0.0548.
As for GGUACCAUCAGAACCUGUCTT against Pop5, the z-score is inactive: 0.922.
Regarding CGUGAUGCUGUAAAUAGUUTT against AI606181, the z-score is inactive: -0.485.
As to CCCAGUGACUAAUGGAUAUTT against Dsg1b, the z-score is inactive: 0.354.
Next, GGUCUUUGCUGUGCACUUUTT against Olfr1214: inactive: -1.16.
As to CGUCUAGGAAGGAAACAGGTT against Stk32a, the z-score is inactive: -1.54.
Regarding GGCAUUUCAACAUCAAUAUTT against Vmn2r26, the z-score is inactive: -0.34.
Next, CCAUUCACAGGUAGAGGAATT against Pdxdc1: inactive: 0.545.
On to GGUACACCACGAAUGCACUTT against Epha1, for which the z-score was inactive: 0.715.
As to GGUGGAUUUUUUGUUGAUCTT against Naa20, the z-score was inactive: -0.647.
On to GGAGAAAUCGAUUCCCAUUTT against Olfr1132, for which the z-score was inactive: 0.444.
Regarding GGACACCGGGAUGUGCAAATT against Pglyrp1, the z-score was inactive: 1.6.
Regarding CAUUGGUGACAAUAAGUAUTT against Ssx9, the z-score is inactive: -0.172.
As to CCUUGUAAUGUGAUUCUGGTT against Ctsr, the z-score was inactive: 0.604.
Regarding GCGAUUGUCAUUCUCUUUUTT against Jak3, the z-score is inactive: 0.711.
Take GCCCGAGUUAGAGCAGUUATT against Inca1: the z-score is inactive: 0.78.
With GGAUGUGACUAAAGUCAACTT against Plet1 the figure was inactive: 0.699.
Next, GGUUCAAGUGCAUUGCUUCTT against Rab34: inactive: 0.979; GGUUUUUUGCUCUAUUUGATT against Ppip5k1: inactive: 0.0552.
Take GGGUUUUUAAGUUCACUGATT against St7l: the z-score was inactive: -0.998.
Consider GGAAGUGGUGGACAAAGUGTT against S100b, for which the z-score was inactive: -0.0507.
Turning to GGUGGAGACUAAUCCAUUATT against Esco1, the z-score was inactive: 1.16.
For the sequence GCAGGACAACCAGCUGGUATT against Tmem107, the z-score was active: 3.43.
Regarding GGGCAUGGCUGUCUUACUCTT against Cend1, the z-score was inactive: -1.66.
Regarding GCCAAAUUGCACCAUGUAUTT against Spinkl, the z-score is inactive: -1.65.
With GACAGAAUGCCAUUUCCUATT against Olfr902 the figure was inactive: -0.325.
Turning to GGGAAGAAGUUUAAAAGAATT against Rdh11, the z-score is inactive: -0.466.
Next, GGAGCAGAAUCCUUAUCGATT against Trpv5: inactive: -0.301; GGAUCAUUAGAUAAGUCAATT against Xpo4: inactive: -0.853; CCGUAAUUGAUUCUUUACUTT against Kif3a: inactive: 0.0217.
Next, CCCUUCGAUAACCAGAUCCTT against Utf1: inactive: 0.786; GGCUUCUCAGCUAGAAAACTT against Atxn7l2: inactive: -0.619; GCCGUUUUACAAAAGCUUUTT against Foxn3: inactive: -0.974.
For the sequence GGAGGGUGUCAUUUUGCCATT against Slc8a3, the z-score is inactive: -1.26.
Regarding GCCUGAAUUCCACUACUCGTT against Def8, the z-score is inactive: 0.551.
As for GGACUAAAAAAAGUAGUGUTT against Abca5, the z-score was inactive: -0.838.
Consider GGAGAUGCAAAGUCUGUCUTT against Krt33a, for which the z-score was inactive: 0.726.
Next, GGUCGAUUGAAGUGGAAAATT against Sh3kbp1: inactive: -0.221; GGAACUCACCUACCAAGAATT against Ankrd40: inactive: -1.24.
